Data: article PMC7949112
Results are given in words; binding and its absence hold for the method and conditions named. In cells and extracts the contact can be indirect. Binding calls can cover weak binding; strength is not graded here. Where a sequence is shown, tags or fusion partners need not be part of it.

Target: T1, Flag-Radil, full length (human) (UniProt Q96JH8)
T1 sequence: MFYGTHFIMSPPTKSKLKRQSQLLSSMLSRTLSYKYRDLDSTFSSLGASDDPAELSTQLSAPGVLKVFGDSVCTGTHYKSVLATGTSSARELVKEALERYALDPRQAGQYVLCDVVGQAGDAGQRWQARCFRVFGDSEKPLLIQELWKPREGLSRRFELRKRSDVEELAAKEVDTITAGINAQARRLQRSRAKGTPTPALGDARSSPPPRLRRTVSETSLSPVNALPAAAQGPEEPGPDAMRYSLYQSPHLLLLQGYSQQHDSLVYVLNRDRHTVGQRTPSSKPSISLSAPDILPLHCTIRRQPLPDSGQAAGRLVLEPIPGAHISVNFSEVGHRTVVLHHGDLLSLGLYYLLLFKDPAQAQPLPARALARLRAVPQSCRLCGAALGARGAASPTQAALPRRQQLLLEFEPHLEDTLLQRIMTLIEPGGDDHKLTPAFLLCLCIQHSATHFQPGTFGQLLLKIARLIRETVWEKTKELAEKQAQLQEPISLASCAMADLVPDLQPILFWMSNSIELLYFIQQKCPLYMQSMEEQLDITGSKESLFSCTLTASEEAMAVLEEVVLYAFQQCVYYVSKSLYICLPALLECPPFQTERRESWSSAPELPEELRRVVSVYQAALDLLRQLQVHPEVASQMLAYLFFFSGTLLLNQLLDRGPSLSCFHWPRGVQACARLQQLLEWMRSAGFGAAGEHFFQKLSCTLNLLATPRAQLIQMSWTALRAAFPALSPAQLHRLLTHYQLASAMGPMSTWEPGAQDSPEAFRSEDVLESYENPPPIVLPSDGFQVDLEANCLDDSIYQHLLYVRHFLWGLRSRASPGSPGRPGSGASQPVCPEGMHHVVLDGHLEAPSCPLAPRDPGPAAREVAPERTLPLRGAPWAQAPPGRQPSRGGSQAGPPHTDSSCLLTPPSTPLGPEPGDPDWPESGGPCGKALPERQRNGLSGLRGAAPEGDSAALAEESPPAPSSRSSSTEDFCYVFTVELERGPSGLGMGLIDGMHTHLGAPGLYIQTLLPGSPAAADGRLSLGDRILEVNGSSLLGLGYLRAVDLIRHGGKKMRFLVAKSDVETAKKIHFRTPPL
Experiment: co-IP; HEK293T transfected for 24 h; lysis in TBSN buffer (20 mM Tris-Cl pH 8.0, 150 mM NaCl, 0.5% NP-40, 5 mM EGTA, 1.5 mM EDTA); 1 mg cleared lysate on Flag M2 agarose, 1 h at 4 °C; immunoblotting

binding: binds
Substance: Rap1 (endogenous) (human (endogenous in HEK293T))
